These are yes or no findings as the source states them, for the method shown. Binding seen in cells or lysates may run through a third protein. These calls come from enrichment with a bait or labelling near it, and not all partners need be listed. Where a sequence is shown, tags or fusion partners need not be part of it.
Target: T1, PARG-1::GFP (C. elegans) (UniProt Q867X0)
T1 sequence: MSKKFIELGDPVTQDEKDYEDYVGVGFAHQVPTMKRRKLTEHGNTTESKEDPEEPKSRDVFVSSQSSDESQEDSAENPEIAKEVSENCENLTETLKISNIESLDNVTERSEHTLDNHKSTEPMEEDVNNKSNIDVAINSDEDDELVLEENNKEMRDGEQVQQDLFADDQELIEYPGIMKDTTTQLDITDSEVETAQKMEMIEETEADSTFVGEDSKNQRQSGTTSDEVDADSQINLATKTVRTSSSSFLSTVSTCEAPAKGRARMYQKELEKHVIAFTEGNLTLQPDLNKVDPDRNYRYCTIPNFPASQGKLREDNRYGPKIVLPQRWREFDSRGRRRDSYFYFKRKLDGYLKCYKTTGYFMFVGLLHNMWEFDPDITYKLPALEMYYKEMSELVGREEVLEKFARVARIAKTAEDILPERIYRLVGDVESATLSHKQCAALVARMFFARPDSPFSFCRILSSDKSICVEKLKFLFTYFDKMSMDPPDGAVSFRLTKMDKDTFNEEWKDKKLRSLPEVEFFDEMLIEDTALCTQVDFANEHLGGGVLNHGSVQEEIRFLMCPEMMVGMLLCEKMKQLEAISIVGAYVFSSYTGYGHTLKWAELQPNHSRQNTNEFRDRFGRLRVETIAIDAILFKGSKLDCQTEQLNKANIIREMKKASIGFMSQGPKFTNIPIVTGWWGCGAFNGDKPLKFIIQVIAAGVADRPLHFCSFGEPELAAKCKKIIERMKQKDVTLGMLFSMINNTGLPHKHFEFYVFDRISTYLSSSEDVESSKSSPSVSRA
Assay: affinity purification with mass spectrometry; GFP immunoprecipitation with agarose GFP-traps (Chromotek) from 1 mg of pooled nuclear-soluble and chromatin-bound fractions of parg-1::GFP animals, with untagged WT animals as control; Buffer D (20% glycerol, 0.2 mM EDTA pH 8, 150 mM KCl, 20 mM Hepes-KOH pH 7.9, 0.2% Triton X-100); overnight at 4°C

B1: HTP-3 phosphorylated at Serine 285 (protein, UniProt O01820 1-739)
chain: MDESFDSSVVPGSLTSDDRAIFNEQTLKNGDENSKSSLEVMANCVYLANSTILRERKVIPAEYFQDFQVYGDVSGYTLRQDIPEGRSVSSKLLASHDAIRQKLLQKLAIVVEESLNTNPVETFVWTFVYDSTTSASAEIGYGGRKSKFVVNYLNMDDTAQQFCKMFSELRNVLSLLRPLPRGLIPSMKVAYRGEPEFVPGFQQVDDFVNPEQINLGAVSFPHGNGFQFAYASKFMVEQPSAIRPPVEVSHFEDDLLNSTITPIEVVRDNTMNCAENPELDEIYFSPGRQEVRMDEDVANESIRCNPSMASEMMVLQSEYNVLIADNDEVPMVVERERSPIVKAAKKRSTRAPAVPITPTEPASPVESPVKEQPQKAPKAQMRRSSKRTTKNNERCEQKEEEPIVNPKRRSARRLVPPVEVDEQPEEQNDDDAQNSLQIDSDAQNSLQIDSDAIITSPEKRNESKSAIPEEAADLDNTTSEKQESSTARYGVSNTSINRKKPDPVANPVSEEAQVDLANGSIPDKRPRKRKYGRVSSILDVADLPTDDTVEEDVRESPIYGRVPSILDVARAEENDAQNDAQDAQNEIAVEGLADLSIDTEQHEEAAPINVTGHQSESVPIIVTEHQSEEAQTVVTEQPAGAASVIAAERHYGRVSSILDVAGSFADVDPSGAAPAIATERHYGRVSSILDVAGSLSDVDPQEDTESSTQNQSTSKKFKPNPPKAMRYGQSPNMPSRRGN
modifications: phosphoserine at 285
binding: binds

— paper PMC9073698
